Data as given in PubChem BioAssay AID651804 (National Center for Advancing Translational Sciences (NCATS), 2012).
Out of some 1,200 compounds screened, about 20 (2%) were called active. Not shown: some 23% with an inconclusive outcome. The call rests on the fitted dose curve; in most records, active means well fitted inhibition curve with a large enough effect; inconclusive means small, poorly fitted or top-dose-only effect; inactive means no such curve, though single readings can be large or run the other way. The list shows a part of the results.

Chains of the proteins cited; added tags and fusions are not shown. Lines headed by an entry give the natural chain unless they say otherwise; changes in a name come on top.
UniProt P11308: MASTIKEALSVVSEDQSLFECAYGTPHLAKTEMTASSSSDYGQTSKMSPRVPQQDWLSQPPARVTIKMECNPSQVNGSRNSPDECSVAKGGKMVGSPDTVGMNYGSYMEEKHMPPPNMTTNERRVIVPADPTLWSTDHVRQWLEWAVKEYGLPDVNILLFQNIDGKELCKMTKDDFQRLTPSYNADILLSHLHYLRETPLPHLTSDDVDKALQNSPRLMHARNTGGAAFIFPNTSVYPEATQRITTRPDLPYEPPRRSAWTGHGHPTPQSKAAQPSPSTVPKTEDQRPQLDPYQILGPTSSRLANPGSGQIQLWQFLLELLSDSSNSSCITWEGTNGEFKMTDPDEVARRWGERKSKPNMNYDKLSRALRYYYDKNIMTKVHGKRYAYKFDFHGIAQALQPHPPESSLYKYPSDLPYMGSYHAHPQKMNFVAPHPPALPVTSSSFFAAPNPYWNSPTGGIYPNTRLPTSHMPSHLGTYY

molecular target: Transcriptional regulator ERG (Homo sapiens) (UniProt P11308); assay: qHTS for Small Molecule Inhibitors of the ERG Ets/DNA interaction: HTRF assay against cherry picks; details: His-ERG Ets domain with biotin-DNA; series mostly up to 154 µM; activity change, negative = inhibition: at the top concentration
In short: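 HTRF of His-tagged ERG Ets domain (200 nM solution) with biotin-DNA (200 nM solution) in 300mM KCl, 50mM Tris-HCl pH 7.5, 1mM EDTA, 1mM DTT; 10 min RT. Anti-His cryptate donor plus streptavidin acceptor added, 10 min, FRET read at 615/665 nm.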

Activity change, negative = inhibition, inactive:
N/C(=N\c1nc2ccccc2o1)NC(=O)c1cccc(Br)c1 -21.5%
CC(C)N(C(=O)Cn1cc(S(=O)(=O)CC(=O)N2CCOCC2)c2ccccc21)C(C)C -13.7%
COc1cc(NC(=O)CCCNC(=O)c2ccc(Cl)cc2)cc(OC)c1 -28%
Cc1ccc(-n2c(Cc3noc4ccccc34)n[nH]c2=S)cc1 -0.53%
COc1ccc(NC(=O)COC(=O)C2C3CC4OC(=O)C2C4C3)cc1 (configuration not stated) -30%
Cc1ccc(CNC(=O)Cn2c(=O)n(Cc3ccc(F)cc3)c(=O)c3sc4ccccc4c32)cc1 -27.2%
C=CCn1cccc(C(=O)Nc2cc(OC)c(OC)c(OC)c2)c1=O -36.4%
O=C(NC1CCCCCCC1)c1ccc(F)c(S(=O)(=O)N2CCOCC2)c1 4.03%
CCN1CCN(C(=O)Cn2ncc3ccsc3c2=O)CC1 -10.2%
CC(=O)Nc1cccc(NC(=O)c2ccccc2OCc2c(C)noc2C)c1 -3.18%
Cc1ccc(NC(=O)C2CCN(S(=O)(=O)c3cccc(C(F)(F)F)c3)CC2)nc1 -12.5%
COc1ccc(C2(C(=O)Nc3ccc(OC)cc3OC)CCCC2)cc1 -17.7%
CC(C#N)(NC(=O)CN1CCN(S(=O)(=O)c2ccccc2C#N)CC1)C1CC1 (configuration not stated) -9.5%
Cc1ccc(-c2noc(C3CCCN(C(=O)c4cccc([N+](=O)[O-])c4)C3)n2)o1 (configuration not stated) -24.6%
CSC(=NC#N)N1CCN(C(=NC#N)SC)CC1 -23.2%
CSc1ccccc1NC(=O)CN(C)C(=O)/C=C/c1ccccc1 -23.6%
O=C(c1ccc(CS(=O)c2ccccc2Cl)o1)N1CCN(c2ccccn2)CC1 (configuration not stated) -22.2%
CC(=O)OCC(=O)C1=CCC2C3CCC4=CC(=O)C=CC4(C)C3(F)C(OC(C)=O)CC12C (configuration not stated) -16.2%
CCN(CC)S(=O)(=O)c1cccc(-c2nc3n(n2)Cc2ccccc2-3)c1 -2.76%
CCOC(=O)N1CCN(C(=O)COC(=O)c2cccc(S(C)(=O)=O)c2)CC1 3.24%
Cc1ccc(CNC(=O)c2sc3nc(-c4ccc(F)cc4)ccc3c2N)cc1 -15.3%
COc1cccc(-n2nc3c(=S)[nH]nc(C)c3c2C)c1 2.71%
Cn1c(SCc2nnc(-c3ccccc3)o2)nc2ccccc21 -17%
CNC(=O)C(=O)NCCN1CCN(C(=O)c2ccc([N+](=O)[O-])cc2)CC1 -38.6%
CCCC(=O)Nc1ccc(C(=O)Nc2nnc(COCC)s2)cc1 -36.2%
O=C(c1ccco1)N(Cc1ccc2c(c1)OCO2)Cc1cc2cc3c(cc2[nH]c1=O)OCO3 -27%
COc1ccc(S(=O)(=O)N2CCCC(C(F)(F)F)C2)cc1 (configuration not stated) -24%
COC(=O)c1sccc1NC(=O)c1ccccc1Br -20.2%
CC(C)CC(=O)CN1C(=O)C2(OCCO2)c2ccccc21 0.53%
CCN(CC)c1ccc2cc(-c3nc(-c4cc(OC)c(OC)c(OC)c4)no3)c(=O)oc2c1 -19.3%
O=[N+]([O-])c1ncccc1OCc1ccc(-c2ccccc2)cc1 -17.9%
CCOc1ccc(-c2cc(C(=O)OC)[nH]n2)cc1 -23.2%
CCOC(=O)C1=C(C)N(C[C@@H]2CC[C@@H](Cc3ccc(-c4ccccc4)cc3)O2)C(=O)NC1c1ccc([N+](=O)[O-])cc1 (some centres not stated) -4.88%
CCOC(=O)c1c(-c2ccccc2)csc1NC(=O)c1cc(-c2ccc(C)c(F)c2)on1 -32.9%
Cc1ccc2c(c1)N(CC(=O)NC1CCCc3ccccc31)C(=O)CO2 (configuration not stated) 4.19%
CCOc1cc(NC(=S)NCC(C)C)c(OCC)cc1NC(=O)c1ccco1 -29%
COc1ccc(CCNC(=O)CSc2n[nH]c(N)n2)cc1 -21.9%
CCOc1ccccc1N1CCN(CC(=O)c2c(N)n(C)c(=O)n(C)c2=O)CC1 -30.2%
CC(=O)C1=C(O)C(=O)N(c2nccs2)C1c1ccccc1 (configuration not stated) -20.4%
CCOC(=O)c1ccc(NC(=O)c2cn(-c3ccccc3)nc2-c2ccc(OC)c(OC)c2)cc1 8.81%
CC(C)N1CCN(Cc2ccc(Sc3nncn3C)o2)CC1CCO (configuration not stated) -34.9%
CCOc1ccc(NS(=O)(=O)c2ccc(NC(C)=O)c(OC)c2)cc1 -24.9%
Cn1c(CO)cnc1SCc1ccc(F)cc1 -18%
CCOc1ccccc1NC(=O)COc1ccc2ccc(=O)oc2c1 5.68%
O=C(Nc1cc(-c2nc3cc(Cl)ccc3o2)ccc1Cl)c1cccs1 111%
COCC(=O)NC1CCN(S(=O)(=O)c2cccc(C(C)=O)c2)CC1 -8.17%
CC1CCCCC1NC(=S)Nc1ccc(Cl)cc1Cl (configuration not stated) -25.8%
COc1ccccc1N(C)S(=O)(=O)c1ccc(C(=O)OCC(=O)N2CCCCCC2)cc1 -24.4%
Cc1nccn1C[C@@H]1CCc2c(c3ccccc3n2C)C1=O -12.8%
Cc1c(C(=O)Cc2ccccc2)n(C)c2ccccc12 -8.75%
N#CC(C(=O)NCc1ccccc1)c1nc2ccccc2nc1N1CCCC1 (configuration not stated) -25.1%
CCCN(CC(=O)Nc1ccc(OC)c(OC)c1)CC(=O)Nc1ccc(F)c(F)c1F -22.2%
COc1ccc(N(C(=O)c2snc(C(N)=O)c2N)C(C(=O)NCC2CCCO2)c2ccc3ncccc3c2)cc1OC (configuration not stated) -28.8%
Cc1ccccc1NS(=O)(=O)c1ccc(OCCNS(C)(=O)=O)cc1 -17.3%
CCc1cccc(C)c1NC(=O)CSc1nc(C)c(C)o1 -16.9%
Cc1cc(C)cc(N(C(=O)c2csnn2)C(C(=O)NC(C)(C)C)c2ccncc2)c1 (configuration not stated) -28.2%
Oc1cncc(Cc2ccccc2)c1 -32.7%
CCN(CC)S(=O)(=O)c1ccc2c(c1)c(=O)c(C(=O)NCCc1ccccc1)cn2C -22.2%
COc1ccc(-c2cc(N)n(S(=O)(=O)Cc3ccccc3)n2)c(OC)c1 -25%
Cc1[nH]cnc1CN1CCc2c(c3ccccc3n2C)C1=O 0.106%
O=C(C1CC(=O)N(c2ccc(Cl)cc2)C1)N1CCCCCC1 (configuration not stated) 0.955%
CCOC(=O)c1cn2nc(Oc3ccc(NC(C)=O)cc3)ccc2n1 -26.7%
O=C(NNC(=O)c1sccc1-n1cccc1)Nc1ccccc1 -2.86%
Cc1ccc(F)cc1NC(=O)CCc1c(C)[nH]c(=O)c(C#N)c1C -19.1%
Cc1ccc(S(=O)(=O)NNC(=S)NC(=O)c2ccc([N+](=O)[O-])cc2)cc1 -39.4%
Cc1nn2c(=O)c3c4c(sc3nc2n1-c1ccccc1)COC(C)(C)C4 28.1%
CC(=O)c1cccc(NC(=S)N2CCN(S(=O)(=O)c3ccc(F)cc3)CC2)c1 -27.4%
O=C(O)CNC(=O)/C(=C\c1ccc2c(c1)OCO2)NC(=O)c1ccc(Br)cc1 -15.4%
Cc1ccc(C)c(N2CCN(C(=O)C(C)n3c(C)c4cnn(-c5ccccc5)c(=O)c4c3C)CC2)c1 (configuration not stated) -4.67%
CCc1c(C(=O)N/N=C/c2sccc2C)nnn1-c1nonc1N -12.1%
Cc1noc(C)c1C(=O)NCc1cccs1 -4.03%
CN(CC(=O)NC(=O)NC1CCCCC1)CC(=O)Nc1ccc(Cl)cc1 -7.16%
COC(=O)C1CSC(C(=O)OC)N1C(=O)CN1CCN(c2ccccc2)CC1 (configuration not stated) 5.94%
Cc1ccc(-n2c(C)cc(C(=O)NS(=O)(=O)c3ccc(C)cc3)c2C)cc1 -22.5%
COCCN(Cc1cc2cc(C)ccc2n2nnnc12)C(=S)Nc1ccc(OC)cc1 167%
Nc1cnccc1C(=O)O -25.4%
CCNC(=S)NC(=NCc1cccnc1)Nc1nc(C)cc(C)n1 -8.54%
CC(=O)Nc1ccc(S(=O)(=O)Nc2nc3ccccc3nc2Nc2ccc(O)c(C(=O)O)c2)cc1 -17.6%
CCNC(=S)N1CCC(C(O)(c2ccccc2)c2ccccc2)CC1 3.45%
C[C@@H]1CN([C@H](C)CO)C(=O)c2cc(NC(=O)Nc3ccc(F)cc3)ccc2O[C@H]1CN(C)C(=O)Nc1ccc(C(F)(F)F)cc1 -29.3%
C=CCOc1ccc(C(c2c(C(=O)O)[nH]c3ccccc23)c2c(C(=O)O)[nH]c3ccccc23)cc1 -22.4%
O=C(CC1C[C@H](C(=O)N2CCOCC2)[C@@]2(CCC3CCCC3)c3[nH]c4ccccc4c3CCN2C1=O)NCC12CC3CC(CC(C3)C1)C2 (some centres not stated) -15.3%
Cc1cc(C)cc(N2C(=O)c3nccnc3C2=O)c1 -25.9%
CCOc1cc(CNCC2CCCN2CC)cc(Cl)c1OC (configuration not stated) -27.4%
Cc1cccc(N2C(=O)CC(Cn3nc(C)cc3C)C2=O)c1 (configuration not stated) 6.26%
COc1ccc(CCNC(=O)CCNC(=O)c2ccco2)cc1 7.27%
Oc1ccc(NCc2ccc(OCc3ccccc3Cl)cc2)cc1 -22.3%
Cc1nc(-c2ccc(F)cc2)c(CC(=O)Nc2ccc(C)c(S(=O)(=O)N3CCOCC3)c2)s1 -19.5%
Cc1cc2cc(CNC(=O)c3ccc(S(=O)(=O)N4CCCCC4)cc3)ccc2n1C 137%
CCOc1ccc(-c2ncncc2-c2ccccc2OC)c(O)c1 -28.8%
COc1ccc(N2CC(NC(=O)c3ccc4c(c3)OCO4)CC2=O)cc1 (configuration not stated) -28.4%
CC(NC(=O)c1ccco1)c1nc(-c2ccc(C(C)(C)C)cc2)no1 (configuration not stated) -19.6%
CCN(CC)c1ccc([N+](=O)[O-])cc1C(=O)O -28%
COc1ccc(CCNC(=O)Cn2c(=O)n(CCCC(=O)NCc3ccco3)c(=O)c3sccc32)cc1OC -5.73%
O=C(NCc1ccc2c(c1)OCO2)C1CCN(S(=O)(=O)N2CCCCC2)CC1 -18.2%
CN(C)c1nc(N)nc(Cn2nnc(-c3ccc(C(F)(F)F)cc3)n2)n1 -38.6%
Nc1nc(Cl)c2ncn(C3OC(CO)C(O)C3O)c2n1 (configuration not stated) -9.18%

In the list so far, 20 have an aryl methoxy group:
Activity change, negative = inhibition, inactive:
COc1cc(NC(=O)CCCNC(=O)c2ccc(Cl)cc2)cc(OC)c1 -28%
COc1ccc(NC(=O)COC(=O)C2C3CC4OC(=O)C2C4C3)cc1 (configuration not stated) -30%
C=CCn1cccc(C(=O)Nc2cc(OC)c(OC)c(OC)c2)c1=O -36.4%
COc1ccc(C2(C(=O)Nc3ccc(OC)cc3OC)CCCC2)cc1 -17.7%
COc1cccc(-n2nc3c(=S)[nH]nc(C)c3c2C)c1 2.71%
COc1ccc(S(=O)(=O)N2CCCC(C(F)(F)F)C2)cc1 (configuration not stated) -24%
CCN(CC)c1ccc2cc(-c3nc(-c4cc(OC)c(OC)c(OC)c4)no3)c(=O)oc2c1 -19.3%
COc1ccc(CCNC(=O)CSc2n[nH]c(N)n2)cc1 -21.9%
CCOC(=O)c1ccc(NC(=O)c2cn(-c3ccccc3)nc2-c2ccc(OC)c(OC)c2)cc1 8.81%
CCOc1ccc(NS(=O)(=O)c2ccc(NC(C)=O)c(OC)c2)cc1 -24.9%
COc1ccccc1N(C)S(=O)(=O)c1ccc(C(=O)OCC(=O)N2CCCCCC2)cc1 -24.4%
CCCN(CC(=O)Nc1ccc(OC)c(OC)c1)CC(=O)Nc1ccc(F)c(F)c1F -22.2%
COc1ccc(N(C(=O)c2snc(C(N)=O)c2N)C(C(=O)NCC2CCCO2)c2ccc3ncccc3c2)cc1OC (configuration not stated) -28.8%
COc1ccc(-c2cc(N)n(S(=O)(=O)Cc3ccccc3)n2)c(OC)c1 -25%
COCCN(Cc1cc2cc(C)ccc2n2nnnc12)C(=S)Nc1ccc(OC)cc1 167%
CCOc1cc(CNCC2CCCN2CC)cc(Cl)c1OC (configuration not stated) -27.4%
COc1ccc(CCNC(=O)CCNC(=O)c2ccco2)cc1 7.27%
CCOc1ccc(-c2ncncc2-c2ccccc2OC)c(O)c1 -28.8%
COc1ccc(N2CC(NC(=O)c3ccc4c(c3)OCO4)CC2=O)cc1 (configuration not stated) -28.4%
COc1ccc(CCNC(=O)Cn2c(=O)n(CCCC(=O)NCc3ccco3)c(=O)c3sccc32)cc1OC -5.73%

3 compounds already listed, arranged by heavy-atom count, descending.
Activity change, negative = inhibition, inactive:
CCN(CC)S(=O)(=O)c1ccc2c(c1)c(=O)c(C(=O)NCCc1ccccc1)cn2C -22.2%
COc1ccc(C2(C(=O)Nc3ccc(OC)cc3OC)CCCC2)cc1 -17.7%
CCOC(=O)c1cn2nc(Oc3ccc(NC(C)=O)cc3)ccc2n1 -26.7%
